This is one part of the list.
Key:
Test in all cases: glycan array binding signal (z-score within array); higher = stronger binding
Conditions in all cases: glycan notation: IUPAC condensed, linker removed
[1] = molecular target: Fuc(a1-2)Gal(b1-4)GlcNAc(b1-3)Gal(b1-4)GlcNAc(b1-2)Man(a1-3)[Fuc(a1-2)Gal(b1-4)GlcNAc(b1-3)Gal(b1-4)GlcNAc(b1-2)Man(a1-6)]Man(b1-4)GlcNAc(b1-4)GlcNAc
In short: (§1)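 The binding signal is a Z-score computed within each array and averaged over linkers. Arrays of the same protein sequence at different concentrations or buffers were also averaged together. Data originate from 3228 arrays in the Consortium for Functional Glycomics database, kept only where the protein sequence was available.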

[2] = molecular target: Fuc(a1-2)Gal(b1-4)GlcNAc(b1-3)Gal(b1-4)GlcNAc(b1-3)Gal(b1-4)GlcNAc
In short: as §1

[3] = molecular target: Fuc(a1-2)Gal(b1-4)GlcNAc(b1-3)GalNAc
In short: as §1

[4] = molecular target: Fuc(a1-2)Gal(b1-4)GlcNAc(b1-3)[Fuc(a1-2)Gal(b1-4)GlcNAc(b1-6)]GalNAc
In short: as §1

[5] = molecular target: Fuc(a1-2)Gal(b1-4)GlcNAc(b1-3)[Fuc(a1-3)[Gal(b1-4)]GlcNAc(b1-6)]Gal(b1-4)Glc
In short: as §1

[6] = molecular target: Fuc(a1-2)Gal(b1-4)GlcNAc(b1-6)GalNAc
In short: as §1

[7] = molecular target: Fuc(a1-2)Gal(b1-4)GlcNAc6S
In short: as §1

[8] = molecular target: Fuc(a1-2)Gal(b1-4)[Fuc(a1-3)]GlcNAc
In short: as §1

[9] = molecular target: Fuc(a1-2)Gal(b1-4)[Fuc(a1-3)]GlcNAc(b1-2)Man(a1-3)[Fuc(a1-2)Gal(b1-4)[Fuc(a1-3)]GlcNAc(b1-2)Man(a1-6)]Man(b1-4)GlcNAc(b1-4)[Fuc(a1-6)]GlcNAc
In short: as §1

[10] = molecular target: Fuc(a1-2)Gal(b1-4)[Fuc(a1-3)]GlcNAc(b1-2)[Fuc(a1-2)Gal(b1-4)[Fuc(a1-3)]GlcNAc(b1-4)]Man(a1-3)[Fuc(a1-2)Gal(b1-4)[Fuc(a1-3)]GlcNAc(b1-2)Man(a1-6)]Man(b1-4)GlcNAc(b1-4)GlcNAc
In short: as §1

[11] = molecular target: Fuc(a1-2)Gal(b1-4)[Fuc(a1-3)]GlcNAc(b1-3)Gal(b1-4)[Fuc(a1-3)]GlcNAc
In short: as §1

[12] = molecular target: Fuc(a1-2)Gal(b1-4)[Fuc(a1-3)]GlcNAc(b1-3)Gal(b1-4)[Fuc(a1-3)]GlcNAc(b1-3)Gal(b1-4)[Fuc(a1-3)]GlcNAc
In short: as §1

[13] = molecular target: Fuc(a1-2)Gal(b1-4)[Fuc(a1-3)]GlcNAc(b1-3)GalNAc
In short: as §1

[14] = molecular target: Fuc(a1-2)Gal(b1-4)[Fuc(a1-3)]GlcNAc(b1-3)[Neu5Ac(a2-6)Gal(b1-4)GlcNAc(b1-6)]Gal(b1-4)Glc
In short: as §1

[15] = molecular target: Fuc(a1-2)Gal3S(b1-4)GlcNAc
In short: as §1

[16] = molecular target: Fuc(a1-2)Gal6S(b1-3)GlcNAc
In short: as §1

[17] = molecular target: Fuc(a1-2)Gal6S(b1-3)GlcNAc6S
In short: as §1

Fuc(a1-2)Gal6S(b1-4)Glc = molecular target: Fuc(a1-2)Gal6S(b1-4)Glc
In short: as §1

[18] = molecular target: Fuc(a1-2)Gal6S(b1-4)Glc6S
In short: as §1

Fuc(a1-2)[Gal(a1-3)]Gal = molecular target: Fuc(a1-2)[Gal(a1-3)]Gal
In short: as §1

[19] = molecular target: Fuc(a1-2)[Gal(a1-3)]Gal(b1-3)GalNAc
In short: as §1

[20] = molecular target: Fuc(a1-2)[Gal(a1-3)]Gal(b1-3)GalNAc(b1-3)Gal(a1-4)Gal(b1-4)Glc
In short: as §1

[21] = molecular target: Fuc(a1-2)[Gal(a1-3)]Gal(b1-3)GlcNAc
In short: as §1

[22] = molecular target: Fuc(a1-2)[Gal(a1-3)]Gal(b1-3)GlcNAc(b1-2)Man(a1-3)[Fuc(a1-2)[Gal(a1-3)]Gal(b1-3)GlcNAc(b1-2)Man(a1-6)]Man(b1-4)GlcNAc(b1-4)GlcNAc
In short: as §1

[23] = molecular target: Fuc(a1-2)[Gal(a1-3)]Gal(b1-3)GlcNAc(b1-2)Man(a1-3)[Fuc(a1-2)[Gal(a1-3)]Gal(b1-3)GlcNAc(b1-2)Man(a1-6)]Man(b1-4)GlcNAc(b1-4)[Fuc(a1-6)]GlcNAc
In short: as §1

[24] = molecular target: Fuc(a1-2)[Gal(a1-3)]Gal(b1-3)GlcNAc(b1-3)GalNAc
In short: as §1

[25] = molecular target: Fuc(a1-2)[Gal(a1-3)]Gal(b1-3)GlcNAc(b1-6)GalNAc
In short: as §1

[26] = molecular target: Fuc(a1-2)[Gal(a1-3)]Gal(b1-4)Glc
In short: as §1

[27] = molecular target: Fuc(a1-2)[Gal(a1-3)]Gal(b1-4)GlcNAc
In short: as §1

[28] = molecular target: Fuc(a1-2)[Gal(a1-3)]Gal(b1-4)GlcNAc(b1-2)Man
In short: as §1

B1: SHCBP1-GST (Homo sapiens), Q8NEM2 (protein)
chain: MADGSLTGGGLEAAAMAPERMGWAVEQELASLEKGLFQDEDSCSDCSYRDKPGSSLQSFMPEGKTFFPEIFQTNQLLFYERFRAYQDYILADCKASEVQEFTAEFLEKVLEPSGWRAVWHTNVFKVLVEITDVDFAALKAVVRLAEPYLCDSQVSTFTMECMKELLDLKEHRLPLQELWVVFDDSGVFDQTALAIEHVRFFYQNIWRSWDEEEEDEYDYFVRCVEPRLRLHYDILEDRVPSGLIVDYHNLLSQCEESYRKFLNLRSSLSNCNSDSEQENISMVEGLKLYSEMEQLKQKLKLIENPLLRYVFGYQKNSNIQAKGVRSSGQKITHVVSSTMMAGLLRSLLTDRLCQEPGEEEREIQFHSDPLSAINACFEGDTVIVCPGHYVVHGTFSIADSIELEGYGLPDDIVIEKRGKGDTFVDCTGADIKISGIKFVQHDAVEGILIVHRGKTTLENCVLQCETTGVTVRTSAEFLMKNSDLYGAKGAGIEIYPGSQCTLSDNGIHHCKEGILIKDFLDEHYDIPKISMVNNIIHNNEGYGVVLVKPTIFSDLQENAEDGTEENKALKIQTSGEPDVAERVDLEELIECATGKMELCARTDPSEQVEGNCEIVNELIAASTQKGQIKKKRLSELGITQADDNLMSQEMFVGIVGNQFKWNGKGSFGTFLF
glycan array binding signal (z-score) [1]: 0.277
glycan array binding signal (z-score) [2]: 0.091
glycan array binding signal (z-score) [3]: 0.559
glycan array binding signal (z-score) [4]: -0.881
glycan array binding signal (z-score) [5]: -0.338
glycan array binding signal (z-score) [6]: 0.361
glycan array binding signal (z-score) [7]: 0.614
glycan array binding signal (z-score) [8]: -0.113
glycan array binding signal (z-score) [9]: 0.791
glycan array binding signal (z-score) [10]: 2.02
glycan array binding signal (z-score) [11]: -0.224
glycan array binding signal (z-score) [12]: -0.139
glycan array binding signal (z-score) [13]: 0.03
glycan array binding signal (z-score) [14]: -0.093
glycan array binding signal (z-score) [15]: -0.831
glycan array binding signal (z-score) [16]: -0.631
glycan array binding signal (z-score) [17]: 0.871
glycan array binding signal (z-score) (Fuc(a1-2)Gal6S(b1-4)Glc): -0.588
glycan array binding signal (z-score) [18]: -1.23
glycan array binding signal (z-score) (Fuc(a1-2)[Gal(a1-3)]Gal): -0.274
glycan array binding signal (z-score) [19]: -0.106
glycan array binding signal (z-score) [20]: -0.847
glycan array binding signal (z-score) [21]: -0.247
glycan array binding signal (z-score) [22]: -0.019
glycan array binding signal (z-score) [23]: -0.945
glycan array binding signal (z-score) [24]: 0.014
glycan array binding signal (z-score) [25]: -0.394
glycan array binding signal (z-score) [26]: 0.71
glycan array binding signal (z-score) [27]: -0.089
glycan array binding signal (z-score) [28]: 0.257
